Data from US5656723A, “Analogues of hypocalcemiant polypeptide compounds sparing the calcium of the organism, their preparation, their use as medicaments and the compositions containing them” (priority 1985, dated 1997).
Not every detail of the peptide structures is certain; ends, links or a residue may be inferred. Bridge positions count the residues as written; N and C are the ends. Peptide text beside a SMILES is read from it.

Test system: decrease in calcemia
Assay: Hypocalcemic activity in fasted male rats (MRC units versus Research Standard B)
Format: in vivo
Settings: male rats 100 to 120 g, without food for 16 hours; calcemia measured one hour after intravenous injection; compared with Research Standard B

CC(C)C[C@H](NC(=O)[C@H](CCCCN)NC(=O)CNC(=O)[C@H](CC(C)C)NC(=O)[C@@H](NC(=O)[C@@H]1CSSC[C@H](N)C(=O)N[C@@H](CC(N)=O)C(=O)N[C@@H](CO)C(=O)N[C@@H](CC(C)C)C(=O)N[C@@H](CO)C(=O)N[C@@H]([C@@H](C)O)C(=O)N1)C(C)C)C(=O)N[C@@H](CO)C(=O)N[C@@H](CCC(N)=O)C(=O)N[C@@H](CCC(=O)O)C(=O)N[C@@H](CC(C)C)C(=O)N[C@@H](Cc1c[nH]cn1)C(=O)N[C@@H](CCCCN)C(=O)N[C@@H](CC(C)C)C(=O)N[C@@H](CCC(N)=O)C(=O)N[C@H](C(=O)N[C@@H](Cc1ccc(O)cc1)C(=O)N1CCC[C@H]1C(=O)N[C@@H](CCCNC(=N)N)C(=O)N[C@H](C(=O)N[C@@H](CC(=O)O)C(=O)N[C@H](C(=O)NCC(=O)N[C@@H](C)C(=O)NCC(=O)N[C@H](C(=O)N1CCC[C@H]1C(N)=O)[C@@H](C)O)C(C)C)[C@@H](C)O)[C@@H](C)O [Example 1] (H-CNSLSTCVLGKLSQELHKLQTYPRTDVGAGTP-NH2; disulfide 1-7)
biological activity (decrease in calcemia): higher than 4000 MRC units per mg
